Test results: PMC5769767

Chains of the proteins cited; added tags and fusions are not shown. Lines headed by an entry give the natural chain unless they say otherwise; changes in a name come on top. Residues count along the entry.
UniProt P52948, residues 1-504: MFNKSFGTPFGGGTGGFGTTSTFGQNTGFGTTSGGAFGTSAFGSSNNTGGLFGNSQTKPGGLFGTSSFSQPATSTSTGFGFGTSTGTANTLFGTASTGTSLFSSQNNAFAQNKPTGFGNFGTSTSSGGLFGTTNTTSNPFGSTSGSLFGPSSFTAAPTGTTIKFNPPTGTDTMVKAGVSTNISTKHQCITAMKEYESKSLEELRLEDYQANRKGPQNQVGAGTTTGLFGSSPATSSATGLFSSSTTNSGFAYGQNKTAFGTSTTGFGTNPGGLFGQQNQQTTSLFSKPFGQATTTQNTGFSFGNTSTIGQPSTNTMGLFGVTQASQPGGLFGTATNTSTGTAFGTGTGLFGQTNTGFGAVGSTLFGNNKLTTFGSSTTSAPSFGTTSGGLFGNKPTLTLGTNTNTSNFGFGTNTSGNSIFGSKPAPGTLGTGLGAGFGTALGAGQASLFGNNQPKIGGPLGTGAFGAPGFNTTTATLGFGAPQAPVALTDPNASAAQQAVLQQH
UniProt Q8BFQ4: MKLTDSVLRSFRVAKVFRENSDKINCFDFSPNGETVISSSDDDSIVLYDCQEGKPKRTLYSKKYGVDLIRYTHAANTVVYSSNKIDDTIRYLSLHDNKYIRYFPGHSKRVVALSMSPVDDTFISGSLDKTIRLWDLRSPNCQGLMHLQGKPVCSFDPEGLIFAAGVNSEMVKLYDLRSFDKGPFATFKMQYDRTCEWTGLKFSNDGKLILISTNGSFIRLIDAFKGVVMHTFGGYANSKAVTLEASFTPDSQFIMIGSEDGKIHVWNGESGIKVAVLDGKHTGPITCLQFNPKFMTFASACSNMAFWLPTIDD

Target: GFP-tagged human Nup98ΔCTD (amino acids 1–504) (human) (UniProt P52948)
Test: affinity purification with mass spectrometry; GFP-Nup98ΔCTD captured on GFP-Trap beads from RAW 264.7 lysate (0.1% Triton X-100, 0.25% sodium deoxycholate, 150 mM NaCl, 1 mM EDTA, 10 mM Tris pH 7.5), 2–4 h, four washes in Net-2 buffer; SDS-PAGE gel pieces analysed by mass spectrometry; GFP alone as control

| Molecule | binding |
| --- | --- |
| Wdr82 (from UniProt Q8BFQ4 1-313) | binds |
| Rae1 (protein, UniProt Q8C570 1-368) MSLFGSTSGFGTGGTSMFGSTTTDNHNPMKDIEVTSSPDDSIGCLSFSPPTLPGNFLIAGSWANDVRCWEVQDSGQTIPKAQQMHTGPVLDVCWSDDGSKVFTASCDKTAKMWDLNSNQAIQIAQHDAPVKTIHWIKAPNYSCVMTGSWDKTLKFWDTRSSNPMMVLQLPERCYCADVIYPMAVVATAERGLIVYQLENQPSEFRRIESPLKHQHRCVAIFKDKQNKPTGFALGSIEGRVAIHYINPPNPAKDNFTFKCHRSNGTNTSAPQDIYAVNGIAFHPVHGTLATVGSDGRFSFWDKDARTKLKTSEQLDQPIAACCFNHNGNIFAYASSYDWSKGHEFYNPQKKNYIFLRNAAEELKPRNKK | binds |
| Nxf1 (protein, UniProt Q99JX7 1-618) MADEGKSYNEHDDRVSFPQRRKKGRGPFRWKCGEGNRRSGRGGSGVQSSRFEEDDGDVAMNDPQDGPRVRYNPYTNRPNRRGDGWHDRDRIHITVRRDRAPAERGGAGTSQDGTTKNWFKITIPYGRKYDKTWLLSMIQSKCSVPFNPIEFHYENTRAHFFVEDATTASALKGVNHKIQDRENRRISIIINASAPPYTVQNELKPEQIEQLKLIMSKRYDGNQQALDLKGLRSDPDLVAQNIDVVLNRRSCMAATLRIIEENIPELLSLNLSSNRLYKLDDMSSIVQKAPNLKTLNLSGNELKTERELDKIKGLKLEELWLDRNPMCDNFGDQSSYISAIRERFPKLLRLDGHELPPPISFDVEAPTMLPPCKGSYFGTENLKSLVLRFLQQYYVIYDSGDRQGLLYAYHDGACCSLSIPYNPQNPVRKNLAEYVKDSRNVKKLKEPTQRFRLLKHTRLNVVAFLNELPKTQHDVNAFVVDISAQTSTLLCFSVNGVFKEVDGKSRDSLRAFTRTFIAVPASNSGLCIVNDELFVRNASPEEIQRAFAMSAPTPSSSPVPTLSPEQQEMLQAFSTQSGMNLEWSQKCLQDNNWDYTRSAQAFTLLKAKGEIPEVAFMK | binds |

No constants are given. Whether binding was seen depends on the method and setting. Binding seen in cells or lysates may run through a third protein. Here binding means that the protein was enriched with, or labelled near, the bait; the list need not be complete.
